This passage reports AC50 results from PubChem BioAssay AID493014 (National Center for Advancing Translational Sciences (NCATS), 2011).

What is called AC50 is the concentration giving half of the maximal activity seen.

The assay can be described thus: qHTS Assay to Find Inhibitors of Chronic Active B-Cell Receptor Signaling. Conditions: ABC-DLBCL IkBa-CBG/CBR reporter, luminescence ratio (green luciferase fused to IkBa over red control in TMD8 lymphoma cells), 4 h. In short, it runs like this: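 Concentration-response series (up to 46 uM) were applied to TMD8 dual-reporter cells for 4 h at 37C with doxycycline. Green/red ratio, after filter-overlap correction, defined %Activity; red signal alone was normalised to basal cells and zero luminescence.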
A general note: In qHTS, concentration-response curves come from the screen itself.

[1] abbreviates: measured here: CBR red luminescence, cell number.
The mark [2] stands for this setting: measured here: IkBa-CBG green luminescence.

Structures are written as SMILES. This is one part of the list. The main result of the screen is listed elsewhere. These columns were measured beside it and carry no call. The list favours compounds with an active or inconclusive main result. Potencies come from curve fits of mixed quality, noted in brackets.

In the case of `O=[N+]([O-])c1c(Nc2ccccc2O)cc(Cl)c2nonc12`, the AC50 is, setting by setting: under setting [1], 28.2 µM [falling, partial curve, poor fit]; under setting [2], 31.6 µM [rising, single point].

Take `CC(=O)n1cc(/C=N/NC(=O)c2sc(C)nc2C)c2ccccc21`: the AC50 under setting [1] is 0.251 µM [falling, full curve, poor fit].

For `CCOC(=O)COn1c(=O)c(=O)n(OC)c2ccccc21`, the AC50 under setting [1] is 6.31 µM [falling, single point]. Still for that read-out and setting: to `COC(=O)/C=c1/s/c(=C(/C#N)C(=O)N2CCCCC2)n(-c2ccccc2)c1=O` belongs 13 µM [falling, single point]; to `O=C(NCC(O)c1ccccc1)c1cccc(S(=O)(=O)N2CCOCC2)c1` (configuration not stated), 6.51 µM [falling, partial curve, poor fit]. With `O=C(Nc1ccccc1)N1CCCC2CCCCC21` (configuration not stated), the AC50 under setting [1] was 14.6 µM [falling, single point].

For the compound `CCC1Sc2ccc(S(=O)(=O)CCC(=O)Nc3cccc(Br)c3)cc2NC1=O` (configuration not stated), the AC50 under setting [1] was 8.91 µM [falling, partial curve, poor fit]. Same read-out and setting: to `CCCCCC(=O)N/N=C(\C)c1ccc(Cl)cc1` belongs 7.08 µM [rising, partial curve, poor fit]; to `Cc1ccc(Nc2nc(N)nc(CSc3nnnn3-c3ccccc3)n2)cc1`, 23.1 µM [rising, single point]; to `CC(Cc1ccccc1)C(=O)NCCO` (configuration not stated), 20.6 µM [rising, partial curve, poor fit]. Consider `CCCOc1ccc(CN(CCC#N)C(=S)NC(=O)c2ccccc2)cc1`, for which the AC50 under setting [1] was 29.1 µM [rising, single point]. `Cc1ccc(Nc2nc(-c3c(C)nc4ccccn34)cs2)cc1`: the AC50 is, setting by setting: under setting [1], 0.447 µM [rising, full curve, poor fit]; under setting [2], 0.501 µM [falling, full curve, poor fit]. Turning to `O=C(N/N=C\c1ccc(CNS(=O)(=O)c2ccccc2)o1)C(=O)Nc1ccc(F)cc1`, the AC50 under setting [1] is 8.2 µM [falling, partial curve].

Consider `CCCCc1cc(=O)oc2cc(C)cc(OC(C)C(=O)NCc3cccnc3)c12` (configuration not stated), for which the AC50 under setting [1] is 25.1 µM [falling, single point].

Regarding `O=C(N/N=C/c1ccc(Br)s1)c1ccco1`, under setting [1], the AC50 is 17.8 µM [falling, partial curve]. With `O=C(CSC1=NS(=O)(=O)c2cc(F)ccc2N1)Nc1ccccc1`, under setting [1], the AC50 is 14.6 µM [falling, single point]. Regarding `C=CCOc1ccc2c(c1)C(=NO)c1cc(OCC=C)ccc1-2`, the AC50 under setting [1] is 5.17 µM [rising, partial curve, poor fit]. In the case of `COc1ccc(CN(C)C(=O)CC(c2ccccc2)c2ccccc2)cc1`, under setting [1], the AC50 is 35.5 µM [falling, single point].

Take `C=CCNc1nc(C(=O)OC(C)C(=O)c2ccc(C)cc2)cs1` (configuration not stated): the AC50 under setting [1] is 9.2 µM [rising, partial curve, poor fit]. As to `CC(C)c1ccc(S(=O)(=O)N2CCN(C(=O)CN3C(=O)c4ccccc4C3=O)CC2)cc1`, the AC50 under setting [1] is 2.91 µM [rising, partial curve, poor fit].

Regarding `CCOc1ccc(C2C(=O)N(C3CCCCCC3)CC(=O)N2CCc2ccc(Cl)cc2)cc1OC` (configuration not stated), the AC50 under setting [1] was 0.562 µM [rising, full curve, poor fit]. With `COc1ccc2[nH]cc(CCn3ccc(O)c(C/C=C/c4ccccc4)c3=O)c2c1`, the AC50 under setting [1] is 22.4 µM [falling, partial curve, poor fit]. Turning to `COc1ccc(-c2cc(C(=O)N3CCCc4ccccc43)no2)cc1`, the AC50 under setting [1] is 22.4 µM [falling, single point]. Same read-out and setting: to `CCOC(=O)c1c(N)nn(C(=O)CC)c1-c1ccccc1` belongs 11.6 µM [falling, partial curve, poor fit].

Turning to `COc1ccc(/C=C/C(=O)c2cc(F)ccc2OC(=O)c2ccc(OC)c(OC)c2)cc1OC`, the AC50 under setting [2] is 16.4 µM [falling, partial curve]. Regarding `O=C(Cn1nc(-c2cccc(Cl)c2)ccc1=O)NCC1COCCO1` (configuration not stated), the AC50 under setting [1] was 2.31 µM [falling, partial curve, poor fit]. Same read-out and setting: to `Cc1ccccc1NC(=O)C(=O)Nc1ccccc1C` belongs 0.126 µM [falling, full curve]; to `CCCc1ccc(-c2ccc(/C=C/C(=O)O)cc2)nc1`, 0.13 µM [falling, full curve].

On to `Cc1sc2ncnc(N3CCC(C(=O)Nc4ccc(Cl)cc4Cl)CC3)c2c1C`, for which the AC50 under setting [1] is 4.61 µM [rising, full curve]. Regarding `CCN(CC)C(=O)CSc1nnc(-c2ccccc2)o1`, the half-maximal activity concentration (AC50) under setting [1] was 23.1 µM [falling, partial curve, poor fit]. As to `CCOc1ccc(N2C(=O)C3C(C2=O)C3(c2ccccc2)c2ccccc2)cc1` (configuration not stated), under setting [1], the AC50 is 4.11 µM [falling, partial curve, poor fit].

For `CCOC(=O)N1CCC(NC(=S)Nc2ccc3nc(N4CCN(C)CC4)cc(C)c3c2)CC1`, the AC50 under setting [1] is 25.1 µM [falling, single point]. Still for that read-out and setting: to `Cc1cc(C)cc(NC(=O)c2cc(C)n(Cc3cccs3)c2C)c1` belongs 6.31 µM [falling, full curve, poor fit]. Still for that read-out and setting: to `O=c1cc(-c2ccc([N+](=O)[O-])cc2)nc2cc(-c3ccc(F)cc3)[nH]n12` belongs 1.84 µM [falling, full curve]; to `O=C(CSc1ccc(Cl)cc1)Nc1ccccc1N1CCN(C(=O)c2ccccc2)CC1`, 7.08 µM [falling, partial curve, poor fit].

On to `CC[C@]12c3[nH]c4cc(CCC(=O)N(C)C)ccc4c3CCN1C(=O)[C@@H](CC(=O)NC(C)(C)C)C[C@@H]2C(=O)N1CCN(C(=O)C2CC2)CC1`, for which the AC50 under setting [1] was 0.82 µM [rising, full curve, poor fit]. In the case of `CCOc1ccccc1N(C(=O)CNC(=O)c1ccco1)C(C(=O)NC1CCCC1)c1cccnc1` (configuration not stated), the AC50 under setting [1] is 15.8 µM [falling, single point]. Turning to `O=C(Nc1ccc2c(c1)OCO2)c1cc(-c2cccc(O)c2)on1`, the AC50 under setting [1] was 15.8 µM [falling, partial curve, poor fit]. With `O=[N+]([O-])c1ccccc1S(=O)(=O)Nc1cccc(-c2ccc(N3CCOCC3)nn2)c1`, the AC50 under setting [1] was 29.1 µM [rising, single point]. Still for that read-out and setting: to `CCSc1nsc(NC(=O)Nc2ccccc2F)n1` belongs 1.41 µM [falling, full curve, poor fit]. In the case of `COc1ccc2c(c1)CCCC21NC(=O)NC1=O` (configuration not stated), the AC50 under setting [1] was 2.51 µM [rising, full curve, poor fit]. As to `O=C(NC(=S)Nc1cccc2c(O)cccc12)c1cccc(Br)c1`, under setting [1], the AC50 was 11.2 µM [falling, partial curve].

`Clc1ccccc1C(c1ccccc1)(c1ccccc1)n1ccnc1`: under setting [1], the AC50 is 0.794 µM [falling, partial curve, poor fit].

Regarding `COc1ccc(OC)c(/C=C/c2nc3ccccc3[nH]c2=O)c1`, the AC50 under setting [1] was 22.4 µM [falling, single point].

For the compound `COc1ccc(OC)c(NC(=O)c2ccccc2NC(=O)c2ccco2)c1`, under setting [1], the AC50 is 12.6 µM [falling, partial curve, poor fit]. Same read-out and setting: to `CCC(C(=O)c1ccccc1)N(C(=O)c1ccccc1Cl)N1C(=O)C2C3C=CC(C3)C2C1=O` (configuration not stated) belongs 17.8 µM [falling, partial curve, poor fit]; to `NS(=O)(=O)c1ccc(-c2ccc(/C=N/Nc3ccc(C(=O)O)cc3)o2)cc1`, 3.98 µM [falling, partial curve, poor fit].

For the compound `CCOc1cc2c(Cl)ncnc2c(OCC)c1OCC`, under setting [1], the AC50 is 35.5 µM [falling, single point].

With `Cc1oc(-c2ccccc2)cc1C(=O)Nc1ccccc1`, the AC50 by setting is: under setting [1], 11.6 µM [rising, partial curve, poor fit]; under setting [2], 1.64 µM [rising, full curve, poor fit]. For the compound `CC(C)CN(CCCNC(=O)CN1C(=O)COc2ccc(S(=O)(=O)N3CCOCC3)cc21)CC(C)C`, the AC50 under setting [1] was 6.31 µM [rising, single point] and the AC50 under setting [2] is 5.62 µM [falling, single point]. With `CC(=O)c1ccc(NC(=O)c2cnn3ccccc23)cc1`, the AC50 under setting [1] is 14.6 µM [falling, partial curve, poor fit]. Turning to `Clc1cccc(-c2nnc(-c3ccno3)o2)c1`, under setting [1], the AC50 was 2.82 µM [rising, partial curve, poor fit].

Regarding `FC(F)(F)c1nnc2ccc(Cl)nn12`, the AC50 runs as follows: under setting [1], 14.1 µM [rising, partial curve, poor fit]; under setting [2], 35.5 µM [falling, partial curve, poor fit]. On to `Cc1c(O)c(CN2CCCC2)cc2c3c(c(=O)oc12)CCC3`, for which the AC50 under setting [1] is 22.4 µM [falling, partial curve, poor fit].

For the compound `Cc1cc(C)n(-c2nc3ccccc3c(=O)n2OCC#N)n1`, the AC50 is, setting by setting: under setting [1], 35.5 µM [falling, single point]; under setting [2], 10 µM [falling, partial curve]. In the case of `CC(C)CNC(=O)C(=O)N/N=C/c1cccs1`, under setting [1], the AC50 is 11.2 µM [falling, single point]. Same read-out and setting: to `Cc1ccc(/C=N/NC(=O)C2=NNC(c3ccccc3)(c3ccccc3)C2)c(O)c1` belongs 14.6 µM [falling, partial curve].

For `COc1ccc(/C=C/C(=O)NC2CCCCCCC2)cc1S(=O)(=O)N1CCOCC1`, under setting [1], the AC50 is 2.59 µM [rising, full curve, poor fit]. `CC(C)CNC(=O)C(=O)Nc1ccc(N(C)C)cc1`: under setting [1], the AC50 is 7.31 µM [falling, partial curve]. For `COc1cc(O)cc2occ(-c3ccc(O)cc3)c(=O)c12`, the AC50 under setting [1] was 6.31 µM [falling, partial curve]. With `O=C(Nc1ccc(-c2cn3ccsc3n2)cc1)C1CCCC1`, the AC50 under setting [1] was 10 µM [falling, partial curve].
